PubChem BioAssay AID602196, INSERM, 2012
This is an unselected part of about 23,000 reagents. Over the whole deposit, 455 (2%) got an active call. 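Active includes both protection and sensitisation; some change values fall well beyond the stated -50 to +50 range.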 Unmarked entries are inactive. The record does not give: the amount of reagent.

Aim: 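Knock-downs that protect lung cancer cells from cisplatin or sensitise them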
Cell system: human A549 lung cancer cells
Knock-down reagent: siRNA pair against human genes
Timing: 48 h transfection before cisplatin; time from cisplatin to read-out not stated
Conditions: cisplatin at a dose killing half of control-siRNA cells; exact dose and duration not given
Detection: 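Cisplatin cell death as a shift from the 50% death seen with control siRNA; siRNAs toxic or growth-blocking alone scored 0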
Scale: two-siRNA summed score (-2 to +2): higher = both siRNAs protect from cisplatin killing; -2 means both sensitise; mean protection from cisplatin (shift in death) and protection from cisplatin (shift in death), siRNA C and protection from cisplatin (shift in death), siRNA D: higher = protection from cisplatin killing
Rule for the call: 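siRNAs harmful alone (LDH or WST-1) get 0; others get +1 for less and -1 for more cisplatin killing; genes are active when the two siRNAs give the same sign, summing to ±2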
Calls: active = both siRNAs shift cisplatin killing the same way; inactive = no consistent shift, or siRNA harmful alone

Gene,PubChem SID,two-siRNA summed score (-2 to +2),mean protection from cisplatin (shift in death) (%),"protection from cisplatin (shift in death), siRNA C (%)","protection from cisplatin (shift in death), siRNA D (%)"
PRR23E,SID131522990,2 (active),16.1,13.5,18.7
SH3RF2,SID131504808,0,-4.4,-7.9,-0.9
LOC388206,SID131510531,0,3.3,-3.7,10.3
BCO1,SID131507816,0,0.3,-0.2,0.8
ADAMTS9,SID131517795,0,14.8,1.9,27.8
MARCHF11-DT,SID131510977,0,3.8,7.6,0.1
PTGER1,SID131503264,0,-11.5,-1.6,-21.5
LOC284417,SID131508110,0,0.6,-3.5,4.8
FLJ25339,SID131500860,-1,-15.1,3.8,-33.9
SETD2,SID131511745,0,4.7,6,3.4
UBD,SID131502009,-1,-5.9,13.9,-25.8
TSC22D3,SID131514883,0,8.4,-2.3,19.1
LOC284021,SID131517554,0,13.8,19.7,7.9
DOP1B,SID131510086,0,2.9,8.5,-2.7
MKLN1,SID131508207,0,0.8,5.9,-4.3
DISP2,SID131519469,1,5.8,21.1,-9.5
LOC440004,SID131512155,0,5.2,3.9,6.4
LOC440289,SID131520902,1,11.5,13.6,9.3
GAS2L3,SID131520932,1,11.6,15.6,7.6
HEBP1,SID131506336,0,-1.7,-3.7,0.4
ADGRF4,SID131520384,1,9.7,15.4,4
HSF1,SID131516322,0,10.7,18,3.3
ATG14,SID131508992,0,1.7,-3.9,7.3
STEAP2,SID131522920,2 (active),10.2,10.8,9.6
HAPLN1,SID131522570,1,20,37,3
LOC344620,SID131502153,-1,-4.9,6.6,-16.5
LOC390880,SID131522371,1,18,18.2,17.8
CFAP298,SID131513465,0,6.6,9.1,4.1
ATF7IP,SID131508650,0,1.3,5.6,-3
CENPV,SID131521151,1,12.4,19.2,5.5
LOC442557,SID131521227,1,12.7,19.6,5.8
UBXN2A,SID131509316,0,2,1.5,2.6
OPRD1,SID131519934,1,8.1,-7.5,23.6
CDHR3,SID131515628,0,9.5,9.9,9

Looked up above:
Result of SETD2 [SID131511745] under “two-siRNA summed score (-2 to +2)”: 0
Under “protection from cisplatin (shift in death), siRNA C (%)”, BCO1 [SID131507816] is entered as -0.2
For “protection from cisplatin (shift in death), siRNA D (%)”, UBD [SID131502009] reads -25.8
Under “protection from cisplatin (shift in death), siRNA D (%)”, FLJ25339 [SID131500860] shows -33.9

Additional reagents:
Gene,PubChem SID,two-siRNA summed score (-2 to +2),mean protection from cisplatin (shift in death) (%),"protection from cisplatin (shift in death), siRNA C (%)","protection from cisplatin (shift in death), siRNA D (%)"
CD70,SID131518814,0,28.8,17.6,40
CD209,SID131502892,0,-19.7,-30.7,-8.6
LOC440776,SID131522421,1,18.4,23.4,13.4
IRX3,SID131515546,0,9.3,6.7,11.9
LOC391511,SID131520894,1,11.4,17.3,5.6
UNC13B,SID131503258,0,-11.6,9.7,-33
LOC392862,SID131509147,0,1.9,-13.8,17.5
LOC442703,SID131513423,0,6.6,11.5,1.7
TUBA3C,SID131509601,0,2.3,-18,22.6
MRPL24,SID131512492,0,5.5,9.4,1.7
DNAJC1,SID131510059,0,2.8,7.8,-2.1
KCNG2,SID131501684,-1,-8.1,-20.7,4.4
LIX1,SID131503851,0,-7.5,-15.3,0.4
CHRAC1,SID131501548,-1,-9.1,1.8,-19.9
MRM1,SID131516434,0,10.9,-6.6,28.3
LOC123397,SID131515004,0,8.5,13.1,4
BICRA,SID131522580,1,20.1,25.8,14.4
LOC390930,SID131519422,1,5.5,12.1,-1.1
PCDHGA1,SID131516775,0,11.6,10.2,13
PIGT,SID131517397,0,13.3,23.1,3.5
SEC22B,SID131512243,0,5.3,9.7,0.8
LOC441231,SID131520108,1,8.7,-5,22.5
SOX21,SID131515117,0,8.7,11.5,5.9
